Laboratory results taken from article PMC9374436.
Results are given in words; binding and its absence hold for the method and conditions named. In cells and extracts the contact can be indirect. Some binding calls cover weakened binding; strength is not graded here. Tags and fused reporters may be left off the sequences shown.

By UniProt entry, the sequences of proteins in these tests, tags left out. Where a name states a change or a piece, a line headed by the entry shows the natural chain unless it says otherwise.
UniProt P53622: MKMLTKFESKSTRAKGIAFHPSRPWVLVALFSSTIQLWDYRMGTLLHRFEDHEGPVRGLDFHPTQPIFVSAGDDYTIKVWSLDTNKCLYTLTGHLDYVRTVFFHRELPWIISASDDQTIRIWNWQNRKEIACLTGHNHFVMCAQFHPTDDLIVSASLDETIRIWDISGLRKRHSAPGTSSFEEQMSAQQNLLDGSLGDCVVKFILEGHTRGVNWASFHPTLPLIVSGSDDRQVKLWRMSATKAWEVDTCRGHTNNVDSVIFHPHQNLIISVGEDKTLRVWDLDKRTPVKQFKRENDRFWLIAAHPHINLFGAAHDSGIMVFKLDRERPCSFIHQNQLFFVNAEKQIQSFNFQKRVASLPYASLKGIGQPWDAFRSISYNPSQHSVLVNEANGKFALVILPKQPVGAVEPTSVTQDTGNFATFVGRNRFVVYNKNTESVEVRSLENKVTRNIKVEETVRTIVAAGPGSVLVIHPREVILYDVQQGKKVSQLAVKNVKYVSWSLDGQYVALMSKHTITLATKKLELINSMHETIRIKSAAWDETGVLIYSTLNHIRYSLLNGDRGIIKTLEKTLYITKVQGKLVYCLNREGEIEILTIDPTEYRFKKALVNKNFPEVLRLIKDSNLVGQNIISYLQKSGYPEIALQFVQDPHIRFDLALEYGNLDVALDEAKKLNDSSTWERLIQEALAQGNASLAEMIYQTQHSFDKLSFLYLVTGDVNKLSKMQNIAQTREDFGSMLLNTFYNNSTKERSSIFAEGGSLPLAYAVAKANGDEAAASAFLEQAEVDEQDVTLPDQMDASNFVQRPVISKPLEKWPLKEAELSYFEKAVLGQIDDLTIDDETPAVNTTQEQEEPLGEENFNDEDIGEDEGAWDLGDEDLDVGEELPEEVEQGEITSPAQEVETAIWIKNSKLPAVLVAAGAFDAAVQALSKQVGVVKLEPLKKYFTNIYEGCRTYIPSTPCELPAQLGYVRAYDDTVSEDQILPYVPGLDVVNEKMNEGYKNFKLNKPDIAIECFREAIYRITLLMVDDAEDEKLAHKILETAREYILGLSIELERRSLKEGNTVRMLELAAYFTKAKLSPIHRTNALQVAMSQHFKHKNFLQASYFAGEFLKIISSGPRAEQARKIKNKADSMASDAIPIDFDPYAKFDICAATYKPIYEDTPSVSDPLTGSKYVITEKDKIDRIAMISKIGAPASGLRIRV

Tests used:
[1] = target: T1, Bet1-FLAG (S. cerevisiae) (UniProt P22804); experiment: co-IP; anti-FLAG beads from yeast lysate, 'w Ub' conditions: DUB inhibitors in the lysis buffer (0.2% NP40), mock treatment after the IP; blots for COPI, Arf, GST; untagged cells as control
T1 sequence: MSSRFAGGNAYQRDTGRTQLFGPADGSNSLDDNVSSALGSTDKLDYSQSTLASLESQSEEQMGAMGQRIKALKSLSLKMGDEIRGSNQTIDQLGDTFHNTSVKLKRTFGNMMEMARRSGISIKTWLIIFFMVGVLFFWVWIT

[2] = target: T2, Gos1-FLAG (S. cerevisiae) (UniProt P38736); experiment: as above
T2 sequence: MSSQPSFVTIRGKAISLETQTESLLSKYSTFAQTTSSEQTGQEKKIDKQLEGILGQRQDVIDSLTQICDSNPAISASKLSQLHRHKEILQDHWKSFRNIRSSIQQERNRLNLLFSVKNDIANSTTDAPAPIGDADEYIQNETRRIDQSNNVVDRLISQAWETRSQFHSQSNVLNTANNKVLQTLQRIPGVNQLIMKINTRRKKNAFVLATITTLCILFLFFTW

[3] = target: T2, Gos1-FLAG (S. cerevisiae); experiment: co-IP; anti-FLAG beads from yeast lysate, 'w/o Ub' conditions: no DUB inhibitors in the lysis buffer, immunoprecipitate treated with Usp2, AMSH and OTULIN; blots for COPI, Arf, GST

binding [1]: binds
binding [2]: binds
binding [3]: binds weakly
Substance: COPI (coatomer protein I) (from UniProt P53622 1-1201; P41810 1-973; P41811 1-889; P32074 1-935; P43621 1-546; P40509 1-296; P53600 1-189) (complex)
